Laboratory results reported in US8648090B2, “Indole alkaloid derivatives having opioid receptor agonistic effect, and therapeutic compositions and methods relating to same” (National University Corporation Chiba University, priority 2007, dated 2014).
Some results were stated once for a whole list of compounds, not compound by compound.

Test system: mice
Experiment: Effects of opioid receptor antagonists on analgesia induced by s.c. administration, mouse tail-flick test
Format: in vivo
Conditions: 15 min after administration
Method: The analgesic effects were determined in the mouse tail-flick test after s.c. administration of the following antagonists: β-funaltrexamine (β-FNA, 40 mg/kg), naltrindole (NTI, 3 mg/kg), and nor-binaltorphimine (norBNI, 20 mg/kg). Measurements were performed 15 min after s.c. administration of compound 11, compound 26 and compound 27. […] Each value represents mean±S.E.M. of 8 or 9 mice.
Mice respond to a focused heat stimulus by flicking or moving their tail from the path of the stimulus, thereby exposing a photocell located in the tail-flick analgesia meter (Ugo Basile Tail-flick Unit 7360, Ugo Basile, Comerio, Italy) immediately below the tail. The reaction time is automatically recorded. Prior to treatment with drugs, vehicle, or saline, the nociceptive threshold was measured three times, and the mean of the reaction time was used as the pre-drug latency for each mouse. A cut-off time of 10 s was used to prevent tissue damage. Analgesia was quantified using the percentage of maximum possible effect (% MPE) and calculated as: % MPE=[(test latency−pre-drug latency)/(cut-off time−pre-drug latency)]×100.

CC[C@@H]1CN2CC[C@@]34OCCO[C@@]3(Nc3ccc(F)c(OC)c34)[C@@H]2C[C@@H]1/C(=C\OC)C(=O)OC [Compound 11]
analgesic response in tail-flick test (1 mg/kg): 80-90%

CCC1CN2CCC3(O)c4c(ccc(F)c4OC)NC3C2CC1C(=COC)C(=O)OC (centres unmarked) [Compound 27]
analgesic response in tail-flick test (0.1 mg/kg): 80-90%
